{"source": "patent US6355473B1", "about": "“Yeast cells having mutations in stp22 and uses therefor” (Cadus Pharmaceutical Corp., priority 1998, dated 2002)", "test_system": "human nociceptin receptor (hNocR)", "experiment": "FUS1-lacZ β-galactosidase induction assay in yeast expressing hNocR", "assay_type": "cell-based", "note": "At least one structure is not confirmed: it was looked up by name or label, or the drawing left a doubt.", "data": [{"smiles": "CC(C)C[C@H](NC(=O)[C@H](CCCCN)NC(=O)[C@H](CCCN=C(N)N)NC(=O)[C@H](C)NC(=O)[C@H](CO)NC(=O)[C@H](CCCCN)NC(=O)[C@H](CCCN=C(N)N)NC(=O)[C@H](C)NC(=O)CNC(=O)[C@@H](NC(=O)[C@H](Cc1ccccc1)NC(=O)CNC(=O)CNC(=O)[C@@H](N)Cc1ccccc1)[C@@H](C)O)C(=O)N[C@@H](C)C(=O)N[C@@H](CC(N)=O)C(=O)N[C@@H](CCC(N)=O)C(=O)O", "note": "[nociceptin]", "values": [{"measurement": "maximal increase in the levels of β-galactosidase activity in response to exogenous nociceptin", "setting": "all stp22 strains bearing different hNocR expression vectors", "value": "10-40 fold"}, {"measurement": "estimated EC50 value for αF-hNocR, stp22 background versus wild type", "setting": "αF-hNocR, stp22 vs wild type strain", "value": "several-fold lower"}]}]}
